Values from PubChem BioAssay AID1224830 (NIAID, 2016)
Aim: 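Genes whose knock-down alters the TNF-alpha reporter response to LPS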 (primary screen). Cells: human THP-1 monocytic leukaemia cells, TNF dual-luciferase reporter clone, PMA-differentiated to macrophage-like cells. Reagents: siRNA pool against human genes, 50 nM. Time to read-out: LPS for 4 h, given about 3 days after siRNA transfection. Treatment: bacterial LPS (TLR4 ligand), 10 ng/ml. Measurement: 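TNF firefly reporter luminescence divided by renilla, normalised to the plate median, then turned into a robust z-score for each replicate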. Direction: TNF reporter robust z-score: higher = stronger TNF reporter response to LPS. Active means: 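Each well counts as active if its z-score is over 2.8 or under -1.5; controls are left without a call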.
The whole screen tested about 18,000 reagents; below is an unselected part. Of all reagents, about 2,900 (16%) got an active call. 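Calls are made per well; low scores hint the gene aids the LPS response, high scores that it dampens it.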 Repeated entries: four replicate wells of each siRNA pool. No sequences are given here.

gene symbol	TNF reporter robust z-score	Call
TMEM100 (transmembrane protein 100)	-0.6	inactive
TMEM100 (transmembrane protein 100)	0.74	inactive
TMEM100 (transmembrane protein 100)	-0.51	inactive
TMEM100 (transmembrane protein 100)	0.64	inactive
SLC38A5	0.11	inactive
SLC38A5	-0.23	inactive
SLC38A5	-0.36	inactive
SLC38A5	0.22	inactive
DBR1 (debranching RNA lariats 1)	-0.29	inactive
DBR1 (debranching RNA lariats 1)	0.66	inactive
DBR1 (debranching RNA lariats 1)	-0.75	inactive
DBR1 (debranching RNA lariats 1)	-1.25	inactive
TENT5C (terminal nucleotidyltransferase 5C)	-0.17	inactive
TENT5C (terminal nucleotidyltransferase 5C)	0.39	inactive
TENT5C (terminal nucleotidyltransferase 5C)	0	inactive
LSM4	-0.32	inactive
LSM4	-1.35	inactive
LSM4	-1.68	active
LSM4	-0.27	inactive
PTPN1 (protein tyrosine phosphatase non-receptor type 1)	1.39	inactive
PTPN1 (protein tyrosine phosphatase non-receptor type 1)	0.44	inactive
PTPN1 (protein tyrosine phosphatase non-receptor type 1)	0.33	inactive
PTPN1 (protein tyrosine phosphatase non-receptor type 1)	0.99	inactive

Records listed so far whose gene name begins with S or s:
gene symbol	TNF reporter robust z-score	Call
SLC38A5	0.11	inactive
SLC38A5	-0.23	inactive
SLC38A5	-0.36	inactive
SLC38A5	0.22	inactive

More records:
gene symbol	TNF reporter robust z-score	Call
DCP1B (decapping mRNA 1B)	-1.05	inactive
DCP1B (decapping mRNA 1B)	-0.04	inactive
DCP1B (decapping mRNA 1B)	0.3	inactive
DCP1B (decapping mRNA 1B)	0.33	inactive
LRIG3 (leucine rich repeats and immunoglobulin like domains 3)	-0.82	inactive
LRIG3 (leucine rich repeats and immunoglobulin like domains 3)	0.54	inactive
LRIG3 (leucine rich repeats and immunoglobulin like domains 3)	-0.48	inactive
LRIG3 (leucine rich repeats and immunoglobulin like domains 3)	-0.06	inactive
UBL4A (ubiquitin like 4A)	0.81	inactive
UBL4A (ubiquitin like 4A)	0.52	inactive
UBL4A (ubiquitin like 4A)	-0.82	inactive
UBL4A (ubiquitin like 4A)	1.47	inactive
BMP8B (bone morphogenetic protein 8b)	-1.84	active
BMP8B (bone morphogenetic protein 8b)	0.69	inactive
BMP8B (bone morphogenetic protein 8b)	0.4	inactive
BMP8B (bone morphogenetic protein 8b)	-0.3	inactive
DHX36 (DEAH-box helicase 36)	-0.63	inactive
DHX36 (DEAH-box helicase 36)	0.09	inactive
DHX36 (DEAH-box helicase 36)	-0.45	inactive
DHX36 (DEAH-box helicase 36)	-0.46	inactive
PATJ (PATJ crumbs cell polarity complex component)	-0.48	inactive
PATJ (PATJ crumbs cell polarity complex component)	-0.04	inactive
PATJ (PATJ crumbs cell polarity complex component)	-0.59	inactive
